These are yes or no findings as the source states them, for the method shown. In cells and extracts the contact can be indirect. Some results given as binding are weak or reduced against the parent protein; the word gives no strength.
Biological target: regulatory-associated protein of mTOR (raptor) (mouse (endogenous in EL4)) (UniProt Q8K4Q0)
Assay: co-IP; serum-starved EL4 cells treated with or without arctigenin (10 μM), E2 (1 μM) or PHTPP (0.1 μM), or control siRNA or ERβ siRNA, for 24 h; NP40 lysis buffer; lysate incubated overnight at 4 °C with 2 μg anti-raptor, protein A/G agarose beads; immunoblot

Protein sequences, listed by entry. Tags and fused reporters are not part of them.
UniProt Q8K4Q0: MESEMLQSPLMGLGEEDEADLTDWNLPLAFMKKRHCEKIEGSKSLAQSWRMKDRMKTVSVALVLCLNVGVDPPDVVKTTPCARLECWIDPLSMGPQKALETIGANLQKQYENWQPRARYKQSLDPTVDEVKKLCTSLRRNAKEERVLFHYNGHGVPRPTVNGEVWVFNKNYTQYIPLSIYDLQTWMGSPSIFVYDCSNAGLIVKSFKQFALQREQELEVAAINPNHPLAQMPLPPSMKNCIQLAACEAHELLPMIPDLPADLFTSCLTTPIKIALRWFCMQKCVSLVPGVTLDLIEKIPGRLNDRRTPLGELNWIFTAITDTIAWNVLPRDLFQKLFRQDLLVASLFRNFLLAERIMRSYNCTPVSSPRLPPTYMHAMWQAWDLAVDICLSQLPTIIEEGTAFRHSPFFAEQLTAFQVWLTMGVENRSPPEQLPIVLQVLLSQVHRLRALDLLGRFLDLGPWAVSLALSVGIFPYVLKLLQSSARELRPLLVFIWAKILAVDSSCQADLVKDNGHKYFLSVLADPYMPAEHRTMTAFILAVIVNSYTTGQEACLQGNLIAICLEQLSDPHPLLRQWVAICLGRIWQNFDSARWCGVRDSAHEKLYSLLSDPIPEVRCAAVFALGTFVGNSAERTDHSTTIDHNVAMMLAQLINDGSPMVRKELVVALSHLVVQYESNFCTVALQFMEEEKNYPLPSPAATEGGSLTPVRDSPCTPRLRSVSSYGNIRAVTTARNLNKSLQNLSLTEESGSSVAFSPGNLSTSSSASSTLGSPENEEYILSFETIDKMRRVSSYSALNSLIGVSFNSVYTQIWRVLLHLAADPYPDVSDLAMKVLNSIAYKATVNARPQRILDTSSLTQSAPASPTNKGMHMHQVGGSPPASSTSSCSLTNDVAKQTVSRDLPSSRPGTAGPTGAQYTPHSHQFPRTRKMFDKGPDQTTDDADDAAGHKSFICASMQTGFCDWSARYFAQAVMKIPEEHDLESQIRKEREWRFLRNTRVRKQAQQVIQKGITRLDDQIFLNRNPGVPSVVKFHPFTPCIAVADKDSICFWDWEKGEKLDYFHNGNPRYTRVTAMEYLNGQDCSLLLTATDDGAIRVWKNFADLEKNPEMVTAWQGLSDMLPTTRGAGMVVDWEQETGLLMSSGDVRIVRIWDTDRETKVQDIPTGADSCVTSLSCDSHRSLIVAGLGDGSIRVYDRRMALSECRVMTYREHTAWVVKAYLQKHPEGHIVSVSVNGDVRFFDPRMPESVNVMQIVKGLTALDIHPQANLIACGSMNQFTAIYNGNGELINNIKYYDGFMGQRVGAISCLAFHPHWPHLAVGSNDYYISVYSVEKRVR
UniProt O08537: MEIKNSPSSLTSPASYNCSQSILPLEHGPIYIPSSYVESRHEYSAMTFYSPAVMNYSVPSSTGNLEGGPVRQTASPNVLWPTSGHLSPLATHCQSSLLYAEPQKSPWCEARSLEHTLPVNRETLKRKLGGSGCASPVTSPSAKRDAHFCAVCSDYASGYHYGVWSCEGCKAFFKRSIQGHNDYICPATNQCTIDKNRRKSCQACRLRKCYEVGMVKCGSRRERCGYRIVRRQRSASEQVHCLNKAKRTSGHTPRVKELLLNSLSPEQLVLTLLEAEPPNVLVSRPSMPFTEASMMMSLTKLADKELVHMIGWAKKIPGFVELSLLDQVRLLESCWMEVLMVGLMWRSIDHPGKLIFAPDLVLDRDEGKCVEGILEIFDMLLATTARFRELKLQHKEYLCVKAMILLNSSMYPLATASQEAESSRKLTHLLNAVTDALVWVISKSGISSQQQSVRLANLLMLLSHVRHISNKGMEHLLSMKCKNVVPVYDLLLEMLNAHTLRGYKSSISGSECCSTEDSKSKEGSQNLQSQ

- binding: binds
Substance: estrogen receptor β (from UniProt O08537 1-530)
